Reference: the supplement of paper PMC7661543
± gives the standard deviation of the averaged measurements. Differences between knockout arms are mostly noise.

Test system: HCC-38
Assay: relative cell number vs DMSO control (72 h) (% of DMSO); higher = less growth inhibition (more cells)
Protocol: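 QMAP-Seq: a pool of 5 breast cancer cell lines (ZR-75-1, SKBR3, HCC-38, MDA-MB-231, BT-20), each carrying 12 doxycycline-inducible Cas9 sgRNA perturbations (11 knockouts plus non-targeting sgNT), was treated with compounds for 72 h at four 10-fold doses (10 nM-10 uM or 1 nM-1 uM range). Barcodes were amplified and sequenced, and cell number was interpolated from 293T spike-in standard curves. The result is expressed as % of the median of DMSO wells. Two biological replicates.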

[1] = sgRNA knockout: sgATF3, 1000 nM
[2] = sgRNA knockout: sgATF4, 1000 nM
[3] = sgRNA knockout: sgATF6, 1000 nM
[4] = sgRNA knockout: sgATG7, 1000 nM
[5] = sgRNA knockout: sgERN1, 1000 nM
[6] = sgRNA knockout: sgHSF1, 1000 nM
[7] = sgRNA knockout: sgHSF2, 1000 nM
[8] = sgRNA knockout: sgKEAP1, 100 nM
[9] = sgRNA knockout: sgKEAP1, 1000 nM
[10] = sgRNA knockout: sgNFE2L2, 10 nM
[11] = sgRNA knockout: sgNFE2L2, 100 nM
[12] = sgRNA knockout: sgNFE2L2, 1000 nM
[13] = sgRNA knockout: sgSLC35F2, 10 nM
[14] = sgRNA knockout: sgSLC35F2, 100 nM
[15] = sgRNA knockout: sgSLC35F2, 1000 nM
[16] = sgRNA knockout: sgXBP1, 1000 nM
[17] = sgRNA knockout: sgATF3, 10000 nM
[18] = sgRNA knockout: sgATF4, 10000 nM
[19] = sgRNA knockout: sgATF6, 10000 nM
[20] = sgRNA knockout: sgATG7, 10000 nM
[21] = sgRNA knockout: sgERN1, 10000 nM
[22] = sgRNA knockout: sgHSF1, 10000 nM
[23] = sgRNA knockout: sgHSF2, 10000 nM
[24] = sgRNA knockout: sgKEAP1, 10000 nM
[25] = sgRNA knockout: sgNFE2L2, 10000 nM
[26] = sgRNA knockout: sgSLC35F2, 10000 nM
[27] = sgRNA knockout: sgXBP1, 10000 nM

With CN1CCN(c2ccc(C(=O)Nc3n[nH]c4ccc(Cc5cc(F)cc(F)c5)cc34)c(NC3CCOCC3)c2)CC1 [Entrectinib] the relative cell number (sgRNA knockout: sgATF3, 1 nM) was 94.58 ± 0.47, the relative cell number (sgRNA knockout: sgATF3, 10 nM) was 102 ± 3.3 and the relative cell number (sgRNA knockout: sgATF3, 100 nM) was 97.6 ± 22. The relative cell number [1] was 88.6 ± 1.4, the relative cell number (sgRNA knockout: sgATF4, 1 nM) was 80.9 ± 1 and the relative cell number (sgRNA knockout: sgATF4, 10 nM) was 109 ± 1.7. For the same compound, the relative cell number (sgRNA knockout: sgATF4, 100 nM) was 86.7 ± 18, the relative cell number [2] was 81.4 ± 9.9 and the relative cell number (sgRNA knockout: sgATF6, 1 nM) was 97 ± 8. For the same compound, the relative cell number (sgRNA knockout: sgATF6, 10 nM) was 116.7 ± 0.96, the relative cell number (sgRNA knockout: sgATF6, 100 nM) was 92 ± 4.5 and the relative cell number [3] was 96.6 ± 17. The relative cell number (sgRNA knockout: sgATG7, 1 nM) was 87 ± 4.1, the relative cell number (sgRNA knockout: sgATG7, 10 nM) was 106.6 ± 0.13 and the relative cell number (sgRNA knockout: sgATG7, 100 nM) was 93.8 ± 23. It also gave a relative cell number [4] of 77.6 ± 3, a relative cell number (sgRNA knockout: sgERN1, 1 nM) of 90.6 ± 3 and a relative cell number (sgRNA knockout: sgERN1, 10 nM) of 104.7 ± 0.4. For the same compound, the relative cell number (sgRNA knockout: sgERN1, 100 nM) was 97 ± 12, the relative cell number [5] was 90.7 ± 13 and the relative cell number (sgRNA knockout: sgHSF1, 1 nM) was 94.6 ± 3.7. The relative cell number (sgRNA knockout: sgHSF1, 10 nM) was 103 ± 5.5, the relative cell number (sgRNA knockout: sgHSF1, 100 nM) was 98.1 ± 5.1 and the relative cell number [6] was 98.7 ± 11. For the same compound, the relative cell number (sgRNA knockout: sgHSF2, 1 nM) was 81.2 ± 1.9, the relative cell number (sgRNA knockout: sgHSF2, 10 nM) was 106 ± 16 and the relative cell number (sgRNA knockout: sgHSF2, 100 nM) was 96.1 ± 19. The relative cell number [7] was 83.2 ± 14, the relative cell number (sgRNA knockout: sgKEAP1, 1 nM) was 97.1 ± 10 and the relative cell number (sgRNA knockout: sgKEAP1, 10 nM) was 127 ± 19. It also gave a relative cell number [8] of 102 ± 7, a relative cell number [9] of 84.3 ± 10 and a relative cell number (sgRNA knockout: sgNFE2L2, 1 nM) of 85.1 ± 2.7. It also gave a relative cell number [10] of 104 ± 8.7, a relative cell number [11] of 82.6 ± 23 and a relative cell number [12] of 73.1 ± 2.7. It also gave a relative cell number (sgRNA knockout: sgSLC35F2, 1 nM) of 88.02 ± 0.3, a relative cell number [13] of 107 ± 5.1 and a relative cell number [14] of 92.5 ± 22. The relative cell number [15] was 93.5 ± 2.4, the relative cell number (sgRNA knockout: sgXBP1, 1 nM) was 87.69 ± 0.46 and the relative cell number (sgRNA knockout: sgXBP1, 10 nM) was 96.6 ± 1.4. It also gave a relative cell number (sgRNA knockout: sgXBP1, 100 nM) of 86.8 ± 26 and a relative cell number [16] of 82.4 ± 2.5.

For S=c1nc[nH]c2nc[nH]c12 [6-Mercaptopurine], the relative cell number (sgRNA knockout: sgATF3, 10 nM) was 93.8 ± 5.5, the relative cell number (sgRNA knockout: sgATF3, 100 nM) was 97.2 ± 3.4 and the relative cell number [1] was 83.2 ± 4.8. It also gave a relative cell number [17] of 68 ± 3.4, a relative cell number (sgRNA knockout: sgATF4, 10 nM) of 86.8 ± 2.5 and a relative cell number (sgRNA knockout: sgATF4, 100 nM) of 113 ± 17. The relative cell number [2] was 82.7 ± 7.4, the relative cell number [18] was 63.2 ± 7.3 and the relative cell number (sgRNA knockout: sgATF6, 10 nM) was 109 ± 12. The relative cell number (sgRNA knockout: sgATF6, 100 nM) was 80.4 ± 12, the relative cell number [3] was 91.6 ± 5.6 and the relative cell number [19] was 68 ± 1.6. It also gave a relative cell number (sgRNA knockout: sgATG7, 10 nM) of 94.2 ± 1.7, a relative cell number (sgRNA knockout: sgATG7, 100 nM) of 98.6 ± 2.8 and a relative cell number [4] of 83 ± 5.3. It also gave a relative cell number [20] of 63.4 ± 1.4, a relative cell number (sgRNA knockout: sgERN1, 10 nM) of 102 ± 14 and a relative cell number (sgRNA knockout: sgERN1, 100 nM) of 98.91 ± 0.14. It also gave a relative cell number [5] of 79.8 ± 6, a relative cell number [21] of 70.4 ± 2.8 and a relative cell number (sgRNA knockout: sgHSF1, 10 nM) of 114 ± 17. The relative cell number (sgRNA knockout: sgHSF1, 100 nM) was 94.4 ± 7, the relative cell number [6] was 82.8 ± 11 and the relative cell number [22] was 87.3 ± 3.3. For the same compound, the relative cell number (sgRNA knockout: sgHSF2, 10 nM) was 101 ± 19, the relative cell number (sgRNA knockout: sgHSF2, 100 nM) was 103 ± 10 and the relative cell number [7] was 91.2 ± 3.6. It also gave a relative cell number [23] of 80.4 ± 8.1, a relative cell number (sgRNA knockout: sgKEAP1, 10 nM) of 103 ± 22 and a relative cell number [8] of 85.6 ± 10. The relative cell number [9] was 77.7 ± 14, the relative cell number [24] was 77 ± 27 and the relative cell number [10] was 88.17 ± 0.87. It also gave a relative cell number [11] of 89.2 ± 3.5, a relative cell number [12] of 83.1 ± 7.3 and a relative cell number [25] of 66.1 ± 2.9. It also gave a relative cell number [13] of 95.6 ± 5.1, a relative cell number [14] of 101 ± 7.8 and a relative cell number [15] of 83.6 ± 3.1. For the same compound, the relative cell number [26] was 66.2 ± 3.9, the relative cell number (sgRNA knockout: sgXBP1, 10 nM) was 89.9 ± 6.9 and the relative cell number (sgRNA knockout: sgXBP1, 100 nM) was 93.7 ± 2.7. The relative cell number [16] was 83 ± 5.5 and the relative cell number [27] was 69.2 ± 3.5.

CC(C)(C#N)c1ccc(N2C(=O)OCc3cnc4ccc(-c5cnc6ccccc6c5)cc4c32)cc1 gave a relative cell number (sgRNA knockout: sgATF3, 10 nM) of 105 ± 6.2, a relative cell number (sgRNA knockout: sgATF3, 100 nM) of 88.9 ± 4.2 and a relative cell number [1] of 78.1 ± 5.4. It also gave a relative cell number [17] of 39.2 ± 5.2, a relative cell number (sgRNA knockout: sgATF4, 10 nM) of 101 ± 27 and a relative cell number (sgRNA knockout: sgATF4, 100 nM) of 102 ± 19. It also gave a relative cell number [2] of 82.9 ± 1.7, a relative cell number [18] of 41.5 ± 4.4 and a relative cell number (sgRNA knockout: sgATF6, 10 nM) of 92.3 ± 12. It also gave a relative cell number (sgRNA knockout: sgATF6, 100 nM) of 103 ± 1.9, a relative cell number [3] of 77.6 ± 12 and a relative cell number [19] of 35.3 ± 8.1. It also gave a relative cell number (sgRNA knockout: sgATG7, 10 nM) of 97 ± 19, a relative cell number (sgRNA knockout: sgATG7, 100 nM) of 96.4 ± 21 and a relative cell number [4] of 77.6 ± 1.4. It also gave a relative cell number [20] of 39.8 ± 2.3, a relative cell number (sgRNA knockout: sgERN1, 10 nM) of 105 ± 29 and a relative cell number (sgRNA knockout: sgERN1, 100 nM) of 97.9 ± 14. The relative cell number [5] was 87.5 ± 9.6, the relative cell number [21] was 44.7 ± 6.5 and the relative cell number (sgRNA knockout: sgHSF1, 10 nM) was 99 ± 4.4. For the same compound, the relative cell number (sgRNA knockout: sgHSF1, 100 nM) was 100 ± 2.9, the relative cell number [6] was 81.1 ± 15 and the relative cell number [22] was 47.2 ± 8.9. For the same compound, the relative cell number (sgRNA knockout: sgHSF2, 10 nM) was 100 ± 12, the relative cell number (sgRNA knockout: sgHSF2, 100 nM) was 99.5 ± 3.7 and the relative cell number [7] was 71.1 ± 0.81. It also gave a relative cell number [23] of 42.8 ± 11, a relative cell number (sgRNA knockout: sgKEAP1, 10 nM) of 91 ± 21 and a relative cell number [8] of 94.3 ± 8.3. For the same compound, the relative cell number [9] was 64.8 ± 6, the relative cell number [24] was 44.1 ± 12 and the relative cell number [10] was 100 ± 17. For the same compound, the relative cell number [11] was 92 ± 24, the relative cell number [12] was 78.8 ± 3 and the relative cell number [25] was 39.5 ± 0.78. It also gave a relative cell number [13] of 104 ± 23, a relative cell number [14] of 107 ± 32 and a relative cell number [15] of 80.2 ± 12. The relative cell number [26] was 40.1 ± 0.99, the relative cell number (sgRNA knockout: sgXBP1, 10 nM) was 105 ± 22 and the relative cell number (sgRNA knockout: sgXBP1, 100 nM) was 94.3 ± 18. For the same compound, the relative cell number [16] was 76.6 ± 10 and the relative cell number [27] was 38.7 ± 3.6.
